Measurements taken from patent US20260061068A1.
These are yes or no findings as the source states them, for the method shown. Some entries that bind do so weakly or less than the wild type.

Assays:
[1] = target: cynomolgus CD19 (cynomolgus monkey); experiment: FACS on cynomolgus PBMC, B cell gate
[2] = target: cynomolgus CD19 (cynomolgus monkey); experiment: FACS on CHO cells transfected with cynomolgus CD19

| binding [1] | binding [2] | Binder |
| --- | --- | --- |
| binds | binds | F6 antibody (human IgG1 anti-CD19) (antibody, V domains shown) VH: EVQLVQSGAEVKKPGESLKISCKGSGYSFTSYWIGWVRQMPGKGLEWMGIIYPGDSDTRYSPSFQGQVTISADKSISTAYLQWSSLKASDTAMYYCARVWYYDFWSGADAFDIWGQGTLVTVSS VL: EIVMTQSPATLSVSPGERATLSCRASQSVSSNLAWYQQKPGQAPRLLIYGASTRATGIPARFSGSGSGTEFTLTISSLQSEDFAVYYCQQGSLEAPQTFGQGTKVEIK |
| binds | binds | 5F5 antibody (human IgG1 anti-CD19) (antibody, V domains shown) VH: EVQLVQSGAEVKKPGESLKISCKGSGYSFTSYWIGWVRQMPGKGLEWMGIIYPGDSDTRYSPSFQGQVTISADKSISTAYLQWSSLKASDTAMYYCARGISGIYNLHGFDIWGQGTLVTVSS VL: DIQMTQSPSSLSASVGDRVTITCRASQSISSYLNWYQQKPGKAPKLLIYAASSLQSGVPSRFSGSGSGTDFTLTISSLQPEDFATYYCQQASLDSPLTFGQGTKVEIK |
| binds | binds | 9G8 antibody (human IgG1 anti-CD19) (antibody, V domains shown) VH: EVQLVQSGAEVKKPGESLKISCKGSGYSFTSYWIGWVRQMPGKGLEWMGIIYPGDSDTRYSPSFQGQVTISADKSISTAYLQWSSLKASDTAMYYCARGVSGIYNLHGFDIWGQGTLVTVSS VL: DIQMTQSPSSLSASVGDRVTITCRASQSISSYLNWYQQKPGKAPKLLIYAASSLQSGVPSRFSGSGSGTDFTLTISSLQPEDFATYYCQQGRFGSPFTFGQGTKVEIK |
| binds | binds | 7F11 antibody (human IgG1 anti-CD19) (antibody, V domains shown) VH: EVQLVQSGAEVKKPGESLKISCKGSGYSFTSYWIGWVRQMPGKGLEWMGIIYPGDSDTRYSPSFQGQVTISADKSISTAYLQWSSLKASDTAMYYCARGVSGIYNLHGFDIWGQGTLVTVSS VL: DIQMTQSPSSLSASVGDRVTITCRASQSISSYLNWYQQKPGKAPKLLIYAASSLQSGVPSRFSGSGSGTDFTLTISSLQPEDFATYYCQQGMWDNPFTFGQGTKVEIK |
